The experiment addresses Serine/arginine-rich splicing factor 10 (SRSF10) (human (endogenous in Hep3B and HCCLM3)) (UniProt O75494). In words: affinity purification with mass spectrometry; SILAC; Hep3B shScramble (heavy) against shSRSF10 (light) lysates with nuclease; IP with two commercial anti-SRSF10 antibodies on Protein G Dynabeads, 4 h at 4 °C; cut-off H/L ratio >1.7.

The chains behind the UniProt entries cited, without tags or fusion partners.
UniProt O75494: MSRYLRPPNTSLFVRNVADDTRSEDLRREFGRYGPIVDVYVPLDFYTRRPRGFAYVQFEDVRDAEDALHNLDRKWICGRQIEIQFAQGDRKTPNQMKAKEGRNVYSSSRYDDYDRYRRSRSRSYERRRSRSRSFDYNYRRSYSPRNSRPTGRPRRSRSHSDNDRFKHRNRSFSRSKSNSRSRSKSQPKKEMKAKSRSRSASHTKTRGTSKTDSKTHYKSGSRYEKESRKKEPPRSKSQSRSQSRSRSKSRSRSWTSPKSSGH
UniProt Q15717: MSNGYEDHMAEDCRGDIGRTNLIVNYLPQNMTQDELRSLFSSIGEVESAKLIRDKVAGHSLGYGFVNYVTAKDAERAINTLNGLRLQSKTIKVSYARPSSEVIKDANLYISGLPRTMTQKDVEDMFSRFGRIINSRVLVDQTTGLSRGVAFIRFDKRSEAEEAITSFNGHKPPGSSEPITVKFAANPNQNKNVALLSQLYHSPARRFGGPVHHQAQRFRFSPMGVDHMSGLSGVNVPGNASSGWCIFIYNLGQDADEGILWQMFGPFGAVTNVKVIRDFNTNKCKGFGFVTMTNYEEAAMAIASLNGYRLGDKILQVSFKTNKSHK
UniProt P61326: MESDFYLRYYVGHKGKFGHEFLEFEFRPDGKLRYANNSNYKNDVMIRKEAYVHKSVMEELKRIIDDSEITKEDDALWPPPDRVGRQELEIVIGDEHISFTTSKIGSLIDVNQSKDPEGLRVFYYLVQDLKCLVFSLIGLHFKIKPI
UniProt Q96A72: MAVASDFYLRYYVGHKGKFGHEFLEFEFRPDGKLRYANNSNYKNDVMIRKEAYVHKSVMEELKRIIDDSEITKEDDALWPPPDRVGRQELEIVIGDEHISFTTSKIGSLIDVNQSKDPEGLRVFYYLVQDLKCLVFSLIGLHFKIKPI
UniProt P11940: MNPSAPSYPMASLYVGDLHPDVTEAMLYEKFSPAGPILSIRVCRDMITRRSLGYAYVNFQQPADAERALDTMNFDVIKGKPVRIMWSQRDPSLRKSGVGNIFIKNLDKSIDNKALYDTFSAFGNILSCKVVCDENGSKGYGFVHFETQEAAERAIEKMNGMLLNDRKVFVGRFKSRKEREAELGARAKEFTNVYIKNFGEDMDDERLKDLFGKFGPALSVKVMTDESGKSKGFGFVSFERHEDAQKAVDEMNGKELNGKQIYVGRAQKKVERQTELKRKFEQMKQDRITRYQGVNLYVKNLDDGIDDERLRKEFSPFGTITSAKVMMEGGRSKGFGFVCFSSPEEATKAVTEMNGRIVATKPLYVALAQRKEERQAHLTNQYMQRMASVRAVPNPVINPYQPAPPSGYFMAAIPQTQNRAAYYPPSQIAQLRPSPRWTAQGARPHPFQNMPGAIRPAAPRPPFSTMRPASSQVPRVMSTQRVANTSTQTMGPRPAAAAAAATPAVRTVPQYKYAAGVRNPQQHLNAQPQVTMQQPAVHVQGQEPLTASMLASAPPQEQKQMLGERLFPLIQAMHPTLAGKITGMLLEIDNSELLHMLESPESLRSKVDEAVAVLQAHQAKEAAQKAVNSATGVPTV

No constants are given. Whether binding was seen depends on the method and setting. In cells and extracts the contact can be indirect. These calls come from enrichment with a bait or labelling near it, and not all partners need be listed.

ELAVL1 (from UniProt Q15717 1-326): the binding result is “binds”.

MAGOH (from UniProt P61326 1-146): the binding entry was “binds”.

Regarding MAGOHB (from UniProt Q96A72 1-148), the binding result was “binds”.

As for PABPC1 (from UniProt P11940 1-636), the binding entry is “binds”.

The record behind these values is paper PMC8927159.
